Article PMC12388125, “Design, Synthesis, and Pharmacological Activity of the N-(4-(1H-1,2,4-Triazol-1-yl)phenyl)-substituted-amide Derivatives” (Molecules, 2025)

Test system: GABA content in brain tissue
Assay: GABA estimation in brain tissue
Format: in vivo, Wistar rats
Settings: 3 mg/kg, n = 5

CN1C(=O)CN=C(c2ccccc2)c2cc(Cl)ccc21 [Diazepam, reference compound]
GABA content in brain tissue vs control (2 h after administration): do not show significant differences
GABA content in brain tissue vs control (7 d continuous administration): showed significant differences
